Article PMC7064775, “Cyclic di-GMP Signaling in Bacillus subtilis Is Governed by Direct Interactions of Diguanylate Cyclases and Cognate Receptors” (mBio, 2020)
Results are given in words; binding and its absence hold for the method and conditions named. In cells and extracts the contact can be indirect. A yes stands for co-enrichment or nearness to the bait. Other partners may have been found. Sequences can lack the tags named with a protein.

Molecular target: T1, His6-DgcK-ΔN175 (Bacillus subtilis NCIB 3610, UniProt P54595 176-359)
T1 construct: Diguanylate cyclase DgcK of Bacillus subtilis NCIB 3610, soluble domain, residues 176 to 359 (construct pAT02b); also called His-DgcK-ΔN175; soluble domain of DgcK; source: E. coli BL21(DE3), purified (Ni-NTA, SEC); also coexpressed with YdaK-ΔN111 in E. coli BL21(DE3), in lysate; not shown: His6, N-terminal, kept
T1 sequence (looked up): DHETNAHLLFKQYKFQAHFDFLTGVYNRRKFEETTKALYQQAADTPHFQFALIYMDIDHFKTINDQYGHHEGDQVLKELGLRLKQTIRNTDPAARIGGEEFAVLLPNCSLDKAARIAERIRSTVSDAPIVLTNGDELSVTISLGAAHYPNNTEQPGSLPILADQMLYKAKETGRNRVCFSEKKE
Assay: affinity purification with mass spectrometry; His6-DgcK-ΔN175 coexpressed with untagged YdaK-ΔN111 from two plasmids in E. coli BL21(DE3), isolated from the lysate by Ni-NTA chromatography; elution fraction analysed by SDS-PAGE and MS

binding: binds
B1: YdaK-ΔN111 (untagged) (domain or fragment, UniProt P96585 112-283)
chain: DITAELRRSMTRLQSEIKSYVAVDRVTGFDNKQRMKLELSEEIKRAERYGNSFVFLLLHMHYFKEFKSLYGEKETDRLFQYVGQQIRTSVRETDKKFRPSDERIGIVLTHTPAEHMPAVLTKLKKQLDTYQLENGKYVSLTFHVCYLPYRNDIQTADQFLEELENEMMMNEL
